# Laboratory results as given in the supplement of paper PMC11438910.
# The list shows a part of the results. The signal is at background level for most entries.
# B1: 4-80.2 (protein)
# chain 1: QVQLQESGPGLVKPSETLSLTCAVSGDSFSSYWWSWIRQPPGKGLEWIGEINGNVGSTNYNPSLKSRVTISKDASKNQFSLKLSSVTAADTAVYYCARYKEYWGQGVLVTVSS
# chain 2: DVVMTQSPLSLPITPGQPASISCRSSQSLVHSNGNTYLSWYQQKPGQPPRRLIYEVSNRDSGVPDRFSGSGAGTDFTLKISRVEAEDVGVYYCGQGTHLPYSFGQGTKVEIK
# B2: 4-99.5 (protein)
# chain 1: QVQLQESGPGLVKPSETLSLTCAVSGYSISSGYYWGWIRQPPGKGLEYIGYISGSSGSPYYNPSLKSRVTISKDTSKNQFSLKLSSATAADTAVYYCARRQVGIGFDYWGQGVLVTVSS
# chain 2: QAAPTQPPSVSGSPGQSVTISCTGTSSDIGYYNAVSWYQQHPGKAPKLMIYEVSKRPSGVSDRFSGSKSGNTASLTISGLQAEDEADYYCSSYAGSNTYIFGAGTRLTVL
# Legend:
# Test in all cases: fluorescence intensity of antibody binding to polysaccharide-coupled beads; higher = stronger binding
# [1] = biological target: pneumococcal polysaccharide C-Poly-1
# [2] = biological target: pneumococcal polysaccharide C-Poly-2
# [3] = biological target: pneumococcal polysaccharide Pn1
# [4] = biological target: pneumococcal polysaccharide Pn10A
# [5] = biological target: pneumococcal polysaccharide Pn47A
# [6] = biological target: pneumococcal polysaccharide Pn47F
# [7] = biological target: pneumococcal polysaccharide Pn48
# [8] = biological target: pneumococcal polysaccharide Pn5
# [9] = biological target: pneumococcal polysaccharide Pn6A
# [10] = biological target: pneumococcal polysaccharide Pn6B
# [11] = biological target: pneumococcal polysaccharide Pn6C
# [12] = biological target: pneumococcal polysaccharide Pn6D
# [13] = biological target: pneumococcal polysaccharide Pn7A
# [14] = biological target: pneumococcal polysaccharide Pn7B
# [15] = biological target: pneumococcal polysaccharide Pn7C
# [16] = biological target: pneumococcal polysaccharide Pn7F
# [17] = biological target: pneumococcal polysaccharide Pn8
# [18] = biological target: pneumococcal polysaccharide Pn9A
# [19] = biological target: pneumococcal polysaccharide Pn9L
# [20] = biological target: pneumococcal polysaccharide Pn9N
# [21] = biological target: pneumococcal polysaccharide Pn9V
# [22] = antibody concentration 0.1 ng/mL
# [23] = antibody concentration 0.534724 ng/mL
# [24] = antibody concentration 2.8593 ng/mL
# [25] = antibody concentration 15.2894 ng/mL
# [26] = antibody concentration 81.7561 ng/mL
# [27] = antibody concentration 437.17 ng/mL
# [28] = antibody concentration 2337.65 ng/mL
# [29] = antibody concentration 12500 ng/mL
binder,measurement,setting,value
B1,fluorescence intensity,[1]; [22],28 MFI
same,fluorescence intensity,[1]; [23],26.5 MFI
same,fluorescence intensity,[1]; [24],30 MFI
same,fluorescence intensity,[1]; [25],25.5 MFI
same,fluorescence intensity,[1]; [26],25.8 MFI
same,fluorescence intensity,[1]; [27],27.2 MFI
same,fluorescence intensity,[1]; [28],29.2 MFI
same,fluorescence intensity,[1]; [29],58 MFI
same,fluorescence intensity,[2]; [22],23.5 MFI
same,fluorescence intensity,[2]; [23],22.5 MFI
same,fluorescence intensity,[2]; [24],21.8 MFI
same,fluorescence intensity,[2]; [25],21 MFI
same,fluorescence intensity,[2]; [26],21 MFI
same,fluorescence intensity,[2]; [27],22.2 MFI
same,fluorescence intensity,[2]; [28],25.8 MFI
same,fluorescence intensity,[2]; [29],51 MFI
same,fluorescence intensity,[3]; [22],14.5 MFI
same,fluorescence intensity,[3]; [23],14.2 MFI
same,fluorescence intensity,[3]; [24],13.5 MFI
same,fluorescence intensity,[3]; [25],13.5 MFI
same,fluorescence intensity,[3]; [26],13.5 MFI
same,fluorescence intensity,[3]; [27],15 MFI
same,fluorescence intensity,[3]; [28],16.5 MFI
same,fluorescence intensity,[3]; [29],26 MFI
same,fluorescence intensity,[4]; [22],27.5 MFI
same,fluorescence intensity,[4]; [23],26.5 MFI
same,fluorescence intensity,[4]; [24],27.5 MFI
same,fluorescence intensity,[4]; [25],27 MFI
same,fluorescence intensity,[4]; [26],27.5 MFI
same,fluorescence intensity,[4]; [27],27 MFI
B2,fluorescence intensity,[5]; [28],17.2 MFI
same,fluorescence intensity,[5]; [29],19.5 MFI
same,fluorescence intensity,[6]; [22],12.5 MFI
same,fluorescence intensity,[6]; [23],12.2 MFI
same,fluorescence intensity,[6]; [24],12.5 MFI
same,fluorescence intensity,[6]; [25],12.5 MFI
same,fluorescence intensity,[6]; [26],12.5 MFI
same,fluorescence intensity,[6]; [27],12 MFI
same,fluorescence intensity,[6]; [28],13 MFI
same,fluorescence intensity,[6]; [29],23.5 MFI
same,fluorescence intensity,[7]; [22],22.5 MFI
same,fluorescence intensity,[7]; [23],21 MFI
same,fluorescence intensity,[7]; [24],22.5 MFI
same,fluorescence intensity,[7]; [25],20.5 MFI
same,fluorescence intensity,[7]; [26],21.5 MFI
same,fluorescence intensity,[7]; [27],23 MFI
same,fluorescence intensity,[7]; [28],26.2 MFI
same,fluorescence intensity,[7]; [29],31.8 MFI
same,fluorescence intensity,[8]; [22],8 MFI
same,fluorescence intensity,[8]; [23],9 MFI
same,fluorescence intensity,[8]; [24],9 MFI
same,fluorescence intensity,[8]; [25],9.5 MFI
same,fluorescence intensity,[8]; [26],9.25 MFI
same,fluorescence intensity,[8]; [27],8.5 MFI
same,fluorescence intensity,[8]; [28],11 MFI
same,fluorescence intensity,[8]; [29],23 MFI
same,fluorescence intensity,[9]; [22],21 MFI
same,fluorescence intensity,[9]; [23],22.5 MFI
same,fluorescence intensity,[9]; [24],22.2 MFI
same,fluorescence intensity,[9]; [25],21.2 MFI
same,fluorescence intensity,[9]; [26],22 MFI
same,fluorescence intensity,[9]; [27],25.5 MFI
same,fluorescence intensity,[9]; [28],24.5 MFI
same,fluorescence intensity,[9]; [29],31.2 MFI
same,fluorescence intensity,[10]; [22],19 MFI
same,fluorescence intensity,[10]; [23],20 MFI
same,fluorescence intensity,[10]; [24],20.8 MFI
same,fluorescence intensity,[10]; [25],20 MFI
same,fluorescence intensity,[10]; [26],20 MFI
same,fluorescence intensity,[10]; [27],21.5 MFI
same,fluorescence intensity,[10]; [28],20 MFI
same,fluorescence intensity,[10]; [29],27.2 MFI
same,fluorescence intensity,[11]; [22],21.5 MFI
same,fluorescence intensity,[11]; [23],23.5 MFI
same,fluorescence intensity,[11]; [24],32 MFI
same,fluorescence intensity,[11]; [25],54.2 MFI
same,fluorescence intensity,[11]; [26],59 MFI
same,fluorescence intensity,[11]; [27],48.5 MFI
same,fluorescence intensity,[11]; [28],63.2 MFI
same,fluorescence intensity,[11]; [29],94.8 MFI
same,fluorescence intensity,[12]; [22],20 MFI
same,fluorescence intensity,[12]; [23],19 MFI
same,fluorescence intensity,[12]; [24],18 MFI
same,fluorescence intensity,[12]; [25],17.5 MFI
same,fluorescence intensity,[12]; [26],17.5 MFI
same,fluorescence intensity,[12]; [27],20 MFI
same,fluorescence intensity,[12]; [28],20.2 MFI
same,fluorescence intensity,[12]; [29],25 MFI
same,fluorescence intensity,[13]; [22],20.5 MFI
same,fluorescence intensity,[13]; [23],21.2 MFI
same,fluorescence intensity,[13]; [24],21.2 MFI
same,fluorescence intensity,[13]; [25],20.5 MFI
same,fluorescence intensity,[13]; [26],20.5 MFI
same,fluorescence intensity,[13]; [27],21.5 MFI
same,fluorescence intensity,[13]; [28],28.5 MFI
same,fluorescence intensity,[13]; [29],107 MFI
same,fluorescence intensity,[14]; [22],18 MFI
same,fluorescence intensity,[14]; [23],16.2 MFI
same,fluorescence intensity,[14]; [24],18 MFI
same,fluorescence intensity,[14]; [25],16 MFI
same,fluorescence intensity,[14]; [26],17 MFI
same,fluorescence intensity,[14]; [27],17.5 MFI
same,fluorescence intensity,[14]; [28],19 MFI
same,fluorescence intensity,[14]; [29],30.8 MFI
same,fluorescence intensity,[15]; [22],17 MFI
same,fluorescence intensity,[15]; [23],16.5 MFI
same,fluorescence intensity,[15]; [24],15.5 MFI
same,fluorescence intensity,[15]; [25],17 MFI
same,fluorescence intensity,[15]; [26],15.2 MFI
same,fluorescence intensity,[15]; [27],16.5 MFI
same,fluorescence intensity,[15]; [28],16.5 MFI
same,fluorescence intensity,[15]; [29],27 MFI
same,fluorescence intensity,[16]; [22],15.5 MFI
same,fluorescence intensity,[16]; [23],15.5 MFI
same,fluorescence intensity,[16]; [24],16 MFI
same,fluorescence intensity,[16]; [25],15.8 MFI
same,fluorescence intensity,[16]; [26],16 MFI
same,fluorescence intensity,[16]; [27],17.5 MFI
same,fluorescence intensity,[16]; [28],20 MFI
same,fluorescence intensity,[16]; [29],45 MFI
same,fluorescence intensity,[17]; [22],22.8 MFI
same,fluorescence intensity,[17]; [23],22.5 MFI
same,fluorescence intensity,[17]; [24],22.5 MFI
same,fluorescence intensity,[17]; [25],20.5 MFI
same,fluorescence intensity,[17]; [26],21.5 MFI
same,fluorescence intensity,[17]; [27],23 MFI
same,fluorescence intensity,[17]; [28],26 MFI
same,fluorescence intensity,[17]; [29],35.5 MFI
same,fluorescence intensity,[18]; [22],19.5 MFI
same,fluorescence intensity,[18]; [23],20 MFI
same,fluorescence intensity,[18]; [24],18.8 MFI
same,fluorescence intensity,[18]; [25],17.8 MFI
same,fluorescence intensity,[18]; [26],20.5 MFI
same,fluorescence intensity,[18]; [27],20 MFI
same,fluorescence intensity,[18]; [28],21.2 MFI
same,fluorescence intensity,[18]; [29],37.5 MFI
same,fluorescence intensity,[19]; [22],19.5 MFI
same,fluorescence intensity,[19]; [23],18 MFI
same,fluorescence intensity,[19]; [24],17 MFI
same,fluorescence intensity,[19]; [25],16.5 MFI
same,fluorescence intensity,[19]; [26],17.5 MFI
same,fluorescence intensity,[19]; [27],19.5 MFI
same,fluorescence intensity,[19]; [28],20.5 MFI
same,fluorescence intensity,[19]; [29],27.8 MFI
same,fluorescence intensity,[20]; [22],16 MFI
same,fluorescence intensity,[20]; [23],16.5 MFI
same,fluorescence intensity,[20]; [24],16.2 MFI
same,fluorescence intensity,[20]; [25],15 MFI
same,fluorescence intensity,[20]; [26],17 MFI
same,fluorescence intensity,[20]; [27],15.5 MFI
same,fluorescence intensity,[20]; [28],18.5 MFI
same,fluorescence intensity,[20]; [29],29.5 MFI
same,fluorescence intensity,[21]; [22],14.8 MFI
same,fluorescence intensity,[21]; [23],15.5 MFI
same,fluorescence intensity,[21]; [24],15 MFI
same,fluorescence intensity,[21]; [25],16 MFI
same,fluorescence intensity,[21]; [26],15 MFI
same,fluorescence intensity,[21]; [27],16.5 MFI
same,fluorescence intensity,[21]; [28],15.5 MFI
same,fluorescence intensity,[21]; [29],20 MFI

# A stretch of the results above, as a working copy:
binder,measurement,setting,value
B2,fluorescence intensity,[9]; [25],21.2 MFI
same,fluorescence intensity,[9]; [26],22 MFI
same,fluorescence intensity,[9]; [27],25.5 MFI
same,fluorescence intensity,[9]; [28],24.5 MFI
same,fluorescence intensity,[9]; [29],31.2 MFI
same,fluorescence intensity,[10]; [22],19 MFI
same,fluorescence intensity,[10]; [23],20 MFI
same,fluorescence intensity,[10]; [24],20.8 MFI
same,fluorescence intensity,[10]; [25],20 MFI
same,fluorescence intensity,[10]; [26],20 MFI
same,fluorescence intensity,[10]; [27],21.5 MFI
same,fluorescence intensity,[10]; [28],20 MFI
same,fluorescence intensity,[10]; [29],27.2 MFI
same,fluorescence intensity,[11]; [22],21.5 MFI
same,fluorescence intensity,[11]; [23],23.5 MFI
same,fluorescence intensity,[11]; [24],32 MFI
same,fluorescence intensity,[11]; [25],54.2 MFI
same,fluorescence intensity,[11]; [26],59 MFI
same,fluorescence intensity,[11]; [27],48.5 MFI
same,fluorescence intensity,[11]; [28],63.2 MFI
same,fluorescence intensity,[11]; [29],94.8 MFI
same,fluorescence intensity,[12]; [22],20 MFI
same,fluorescence intensity,[12]; [23],19 MFI
same,fluorescence intensity,[12]; [24],18 MFI
same,fluorescence intensity,[12]; [25],17.5 MFI
same,fluorescence intensity,[12]; [26],17.5 MFI
same,fluorescence intensity,[12]; [27],20 MFI
same,fluorescence intensity,[12]; [28],20.2 MFI
same,fluorescence intensity,[12]; [29],25 MFI
same,fluorescence intensity,[13]; [22],20.5 MFI
same,fluorescence intensity,[13]; [23],21.2 MFI
same,fluorescence intensity,[13]; [24],21.2 MFI
same,fluorescence intensity,[13]; [25],20.5 MFI
same,fluorescence intensity,[13]; [26],20.5 MFI
same,fluorescence intensity,[13]; [27],21.5 MFI
same,fluorescence intensity,[13]; [28],28.5 MFI
same,fluorescence intensity,[13]; [29],107 MFI
same,fluorescence intensity,[14]; [22],18 MFI
same,fluorescence intensity,[14]; [23],16.2 MFI
same,fluorescence intensity,[14]; [24],18 MFI
same,fluorescence intensity,[14]; [25],16 MFI
same,fluorescence intensity,[14]; [26],17 MFI
same,fluorescence intensity,[14]; [27],17.5 MFI
same,fluorescence intensity,[14]; [28],19 MFI
same,fluorescence intensity,[14]; [29],30.8 MFI
same,fluorescence intensity,[15]; [22],17 MFI
same,fluorescence intensity,[15]; [23],16.5 MFI
same,fluorescence intensity,[15]; [24],15.5 MFI
same,fluorescence intensity,[15]; [25],17 MFI
